Assay results from PubChem BioAssay AID504842 (National Center for Advancing Translational Sciences (NCATS), 2011).
In all, about 330,000 compounds went through this assay and about 100 (0.03%) were called active. The inconclusive results got no clear call from the source; some entries with a clear call stand among them for comparison. The call rests on the fitted dose curve; in most records, active means well fitted inhibition curve with a large enough effect; inconclusive means small, poorly fitted or top-dose-only effect; inactive means flat fitted curve, though single readings scatter. Potencies of inconclusive entries are doubtful fits and often do not repeat.

Tested on: Chaperonin Mm-Cpn (Methanococcus maripaludis)
Assay: Inhibitors of TCP-1 ring complex (TRiC) of Methanococcus maripaludis (MmCpn): qHTS; further: nearly all actives have a fitted effect of over 80% in size;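 on Potency: enzyme at 25 nM with ATP substrate at 10 µM during the reaction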
Conditions: purified Mm-Cpn ATPase, ADP Transcreener TR-FRET; series mostly up to 76.9 µM; activity, negative = inhibition: at the top concentration
In short: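 ATPase turnover read by TR-FRET ADP competition (Eu cryptate antibody/ADP-d2, 665/590 nm): 10uM ATP final, 25nM Mm-CPN final, 30 min 37degC after 10-min compound preincubation, pH 7.4 Tris/KCl/MgCl2/DTT buffer.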
On the % scale 0 is the no-effect control and ±100 the full control effect; potency means the concentration at half of the fitted maximal effect.

Compound	activity, negative = inhibition	Potency
CN(C)c1cccc(C(=O)OCC(=O)Nc2ccccc2-c2ccccc2)c1	inactive: -2.36%	
O=C(CCC(=O)Nc1ccc(Cl)cc1)N/N=C/c1ccc2c(c1)OCO2		inconclusive: 100 µM [inhibitor, single point]
O=C1CC(N2CCCc3ccccc32)C(=O)N1c1ccccc1 (centres undefined)		inconclusive: 50.1 µM [inhibitor, single point]
COc1ccccc1N1C(=N)S/C(=C\c2ccc(-c3ccccc3C(=O)O)o2)C1=O	inactive: -2.2%	
O=C(C#Cc1ccccc1)c1ccco1		inconclusive: 39.8 µM [inhibitor, partial curve, poor fit]
C#CCOCCOCCOCCNc1nc(N2CCN(C(=O)[C@H]([C@@H](C)CC)n3cc([C@@H](N)CC(C)C)nn3)CC2)nc(N2CCN(C(=O)[C@H](Cc3cc4ccccc4[nH]3)n3cc([C@@H](N)CC(C)C)nn3)CC2)n1		inconclusive: 89.1 µM [inhibitor, single point]
Cc1cc([N+](=O)[O-])nn1CC(=O)N1CCN(Cc2ccccc2)CC1		inconclusive: 100 µM [inhibitor, single point]
CCOC(=O)CC1C(=O)NCCN1C(=S)NC(=O)c1ccccc1OC (centres undefined)		inconclusive: 10 µM [inhibitor, single point]
O=C(NCCc1ccc(Cl)cc1)c1cc(-c2ccncc2)nc2ccccc12	inactive: -15.9%	
CCOc1ccc(N(CC(=O)NCc2ccccc2C)S(C)(=O)=O)cc1	inactive: -1.55%	
CN1CCN(c2nc(-c3cccnc3)nc3scc(-c4ccccc4)c23)CC1	inactive: -1.01%	
CN(C)c1oc(-c2ccc(OCc3ccccc3)cc2)nc1C#N	inactive: -27.7%	
Cc1nc(NCCO)c2nnn(Cc3ccccc3F)c2n1		inconclusive: 25.1 µM [inhibitor, single point]
CCc1cccc(C)c1NC(=O)CSc1nc(-c2ccccc2F)nc2nc[nH]c12		inconclusive: 56.2 µM [inhibitor, single point]
O=C(Nc1ccccc1)c1ccc(NC2CCCCC2)c(S(=O)(=O)N2CCOCC2)c1		inconclusive: 89.1 µM [inhibitor, single point]
COc1ccc(C2=NN(C(=O)c3ccccc3)C(c3cccc([N+](=O)[O-])c3)C2)cc1 (centres undefined)		inconclusive: 22.4 µM [inhibitor, single point]
CCN(CC)CCOC(=O)c1ccc(NC(=O)COc2cc(=O)n(CC)c3ccccc23)cc1		inconclusive: 79.4 µM [inhibitor, single point]
O=S(=O)(Nc1ccccc1C(F)(F)F)c1ccc(-c2ccccn2)s1	inactive: -3.88%	
COc1ccc(C(=O)NCC(=O)NCC(=O)OCc2ccc(Br)cc2)cc1		inconclusive: 100 µM [inhibitor, single point]

Three entries from above, sorted by count of non-hydrogen atoms, largest number first:
Compound	activity, negative = inhibition	Potency
C#CCOCCOCCOCCNc1nc(N2CCN(C(=O)[C@H]([C@@H](C)CC)n3cc([C@@H](N)CC(C)C)nn3)CC2)nc(N2CCN(C(=O)[C@H](Cc3cc4ccccc4[nH]3)n3cc([C@@H](N)CC(C)C)nn3)CC2)n1		inconclusive: 89.1 µM [inhibitor, single point]
O=C1CC(N2CCCc3ccccc32)C(=O)N1c1ccccc1 (centres undefined)		inconclusive: 50.1 µM [inhibitor, single point]
Cc1nc(NCCO)c2nnn(Cc3ccccc3F)c2n1		inconclusive: 25.1 µM [inhibitor, single point]
